Values from PubChem BioAssay AID1259254 (NCATS, 2017)
Here is a random part of about 59,000 reagents. About 1,550 of them (2.6%) count as active. 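G2 share is only a proxy for re-replication; each gene was hit by three separate siRNAs, and active genes were retested.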 A number with no mark means an inactive call. Further read-outs or replicates are left out here. Not stated in the record: the amount of reagent.

Test: 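Gene knock-downs that lead to re-replication, shown by excess G2 DNA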 (primary screen)
System: human HCT116 colorectal cancer cells
Knock-down reagent: single siRNA against human genes
Duration: 3 days
Read-out: 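Nuclei stained with Hoechst and imaged; cell-cycle phase assigned by DNA content; G2 share scaled per plate, non-targeting siRNA 0%, GMNN siRNA 100%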
Direction: G2 robust z-score: higher = more G2 cells, more excess DNA replication
Hit rule: 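Active siRNAs have a G2 robust z of 5 or more median absolute deviations over the median, which in these data means about 38% or higher of GMNN control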

AK5 (GeneID 26289) [SID160737924]
- G2 robust z-score: 2.07

AK5 (GeneID 26289) [SID160737925]
- G2 robust z-score: -0.427

AK5 (GeneID 26289) [SID160737926]
- G2 robust z-score: 0.403

ATP10B (GeneID 23120) [SID160735498]
- G2 robust z-score: 2.7

ATP10B (GeneID 23120) [SID160735500]
- G2 robust z-score: -0.683

ATP10B (GeneID 23120) [SID160735501]
- G2 robust z-score: 0.147

EPB41L2 (GeneID 2037) [SID160760678]
- G2 robust z-score: 1.8

EPB41L2 (GeneID 2037) [SID160760689]
- G2 robust z-score: 2.11

EPB41L2 (GeneID 2037) [SID160760700]
- G2 robust z-score: 1.46

SYNPO (GeneID 11346) [SID160731089]
- G2 robust z-score: 1.26

SYNPO (GeneID 11346) [SID160731100]
- G2 robust z-score: 1.25

SYNPO (GeneID 11346) [SID160731108]
- G2 robust z-score: -0.192

2 of these entries in another layout:
| gene | PubChem SID | G2 robust z-score |
| --- | --- | --- |
| SYNPO (GeneID 11346) | SID160731089 | 1.26 |
| SYNPO (GeneID 11346) | SID160731100 | 1.25 |
